From publication PMC12049449
For at least one entry, the source does not settle the construct or the ends of the probe. At least one verdict rests on a figure or table, not on a statement of the authors.

Chains of the proteins cited; added tags and fusions are not shown.
UniProt Q9UQ84, whole entry D173A: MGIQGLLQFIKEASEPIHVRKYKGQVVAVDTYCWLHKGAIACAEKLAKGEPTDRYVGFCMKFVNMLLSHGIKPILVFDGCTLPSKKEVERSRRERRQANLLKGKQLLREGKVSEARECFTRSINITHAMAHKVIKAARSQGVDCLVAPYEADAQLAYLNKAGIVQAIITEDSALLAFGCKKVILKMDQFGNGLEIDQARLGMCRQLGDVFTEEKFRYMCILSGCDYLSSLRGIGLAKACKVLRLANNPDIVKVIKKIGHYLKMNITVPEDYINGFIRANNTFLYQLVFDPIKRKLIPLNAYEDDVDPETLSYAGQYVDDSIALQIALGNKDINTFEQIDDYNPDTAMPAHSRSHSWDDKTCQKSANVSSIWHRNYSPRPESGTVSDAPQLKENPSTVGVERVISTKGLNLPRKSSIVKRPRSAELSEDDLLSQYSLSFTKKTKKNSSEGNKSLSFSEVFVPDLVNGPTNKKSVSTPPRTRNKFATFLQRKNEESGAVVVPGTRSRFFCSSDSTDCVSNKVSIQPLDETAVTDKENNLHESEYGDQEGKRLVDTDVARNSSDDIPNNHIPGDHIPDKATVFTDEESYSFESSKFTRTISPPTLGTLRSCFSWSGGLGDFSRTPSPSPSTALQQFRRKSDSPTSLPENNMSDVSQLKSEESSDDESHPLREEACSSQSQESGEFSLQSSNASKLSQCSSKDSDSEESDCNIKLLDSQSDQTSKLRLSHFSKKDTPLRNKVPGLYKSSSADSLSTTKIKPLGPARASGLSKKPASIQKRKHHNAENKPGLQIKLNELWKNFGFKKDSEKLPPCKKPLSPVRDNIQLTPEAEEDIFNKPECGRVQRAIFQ

Target: EXO1 (D173A) (Homo sapiens) (UniProt Q9UQ84)
Experiment: EMSA
Settings: variant D173A taken from Methods; EMSA: 25 mM Tris-acetate pH 7.5, 1 mM DTT, 3 mM EDTA, 0.1 mg/ml BSA, 1 nM DNA, 15 min on ice, 0.6% agarose at 4 C; recombinant protein; residues 1-846; protein details: C-terminal 1xFLAG (MBP cleaved); label: 32P-dCTP at 3' end of X12-3 (terminal transferase)

**Q.** Does “GACGTCATAGACGATTACATTGCTAGGACATGCTGTCTAGAGACTATCGC (double strand) [50 bp dsDNA (X12-3/X12-4C)]” bind?
**A.** Result: binds
